Reference: patent publication US20190033295A1
Results are given in words; binding and its absence hold for the method and conditions named. Some results given as binding are weak or reduced against the parent protein; the word gives no strength.

By UniProt entry, the sequences of proteins in these tests, tags left out. Where a name states a change or a piece, a line headed by the entry shows the natural chain unless it says otherwise.
UniProt P0DMV8: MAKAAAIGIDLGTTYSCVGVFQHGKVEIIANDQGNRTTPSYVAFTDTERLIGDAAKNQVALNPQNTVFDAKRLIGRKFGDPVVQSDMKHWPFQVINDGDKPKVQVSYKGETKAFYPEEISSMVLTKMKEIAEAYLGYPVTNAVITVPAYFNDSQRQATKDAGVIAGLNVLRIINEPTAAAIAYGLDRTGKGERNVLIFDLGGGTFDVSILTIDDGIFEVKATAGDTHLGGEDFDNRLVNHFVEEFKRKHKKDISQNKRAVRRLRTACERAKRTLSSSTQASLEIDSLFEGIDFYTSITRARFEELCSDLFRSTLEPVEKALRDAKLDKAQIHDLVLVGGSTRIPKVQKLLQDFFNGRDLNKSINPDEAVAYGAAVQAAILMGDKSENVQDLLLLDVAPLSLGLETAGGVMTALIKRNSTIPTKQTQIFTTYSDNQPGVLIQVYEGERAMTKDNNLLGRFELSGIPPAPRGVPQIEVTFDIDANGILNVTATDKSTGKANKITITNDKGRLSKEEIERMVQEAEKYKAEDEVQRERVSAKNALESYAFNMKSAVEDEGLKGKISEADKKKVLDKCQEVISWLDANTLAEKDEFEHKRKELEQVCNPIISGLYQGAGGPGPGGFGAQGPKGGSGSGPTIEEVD

Target: T1, Strep-AIMP2-DX2 (human) (UniProt Q13155)
T1 sequence: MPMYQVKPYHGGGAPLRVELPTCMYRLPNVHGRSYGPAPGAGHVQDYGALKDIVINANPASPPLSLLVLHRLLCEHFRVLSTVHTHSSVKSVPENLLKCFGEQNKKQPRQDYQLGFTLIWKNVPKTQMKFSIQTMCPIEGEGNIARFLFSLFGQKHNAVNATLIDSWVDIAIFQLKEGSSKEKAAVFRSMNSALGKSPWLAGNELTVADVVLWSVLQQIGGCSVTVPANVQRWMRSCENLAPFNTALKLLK
Test: co-expression in 293T cells, strep-tag column IP, western blot with GFP antibody

binding: binds
Substance: GFP-HSP70 fragment SB (substrate binding domain) (from UniProt P0DMV8 385-536)
